No constants are given. Whether binding was seen depends on the method and setting. Binding seen in cells or lysates may run through a third protein. Some entries that bind do so weakly or less than the wild type.
Biological target: IκBα (mouse (endogenous in HL-1)) (UniProt Q9Z1E3)
Test: co-IP; 7 μg IκBα antibody crosslinked (DSS) to Protein A/G magnetic beads; HL-1 cell lysates with 1500 μg total protein, overnight at 4 °C; cells transfected with control plasmid (OE-NC) or lnc9456 overexpression plasmid (OE-lnc9456) for 48 h; western blotting of the eluate

The chains behind the UniProt entries cited, without tags or fusion partners.
UniProt Q9Z1E3: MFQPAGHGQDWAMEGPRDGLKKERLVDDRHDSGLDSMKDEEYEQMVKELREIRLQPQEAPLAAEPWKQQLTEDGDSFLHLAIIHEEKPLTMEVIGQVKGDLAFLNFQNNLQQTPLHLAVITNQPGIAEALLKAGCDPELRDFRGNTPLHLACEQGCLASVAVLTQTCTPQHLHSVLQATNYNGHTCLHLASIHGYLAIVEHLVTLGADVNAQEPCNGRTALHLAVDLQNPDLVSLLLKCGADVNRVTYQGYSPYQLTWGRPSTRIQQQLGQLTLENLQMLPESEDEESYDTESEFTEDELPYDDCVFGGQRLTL

binding: binds
B1: Ras-GTPase-activating protein (SH3 domain)-binding protein 2 (G3BP2) (protein, UniProt P97379 1-482)
chain: MVMEKPSPLLVGREFVRQYYTLLNKAPEYLHRFYGRNSSYVHGGVDASGKPQEAVYGQNDIHHKVLSLNFSECHTKIRHVDAHATLSDGVVVQVMGLLSNSGQPERKFMQTFVLAPEGSVPNKFYVHNDMFRYEDEVFGDSEPELDEESEDEVEEEQEDRQPSPEPVQENANSAYYDAHPVTNGIEEPLEESSHEPEPEPESETKTEELKPQVEEKHLEELEEKSATPPPAEPASLPQEPPKAFSWASVTSKNLPPSGTVSSSGIPPHVKAPVSQPRVDAKPEVQSQPPRVREQRPRERPGFPPRGPRPGRGDMEQNDSDNRRIIRYPDSHQLFVGNLPHDIDENELKEFFMSFGNVVELRINTKGVGGKLPNFGFVVFDDSEPVQRILIAKPIMFRGEVRLNVEEKKTRAARERETRGGGDDRRDIRRNDRGPGGPRGIVGGGMMRDRDGRGPPPRGGMTQKLGSGRGTGQMEGRFTGQRR

— paper PMC10587311
